Some of the results follow.

Protein sequences, listed by entry. Tags and fused reporters are not part of them. Lines headed by an entry give the natural chain unless they say otherwise; changes in a name come on top.
UniProt Q93075: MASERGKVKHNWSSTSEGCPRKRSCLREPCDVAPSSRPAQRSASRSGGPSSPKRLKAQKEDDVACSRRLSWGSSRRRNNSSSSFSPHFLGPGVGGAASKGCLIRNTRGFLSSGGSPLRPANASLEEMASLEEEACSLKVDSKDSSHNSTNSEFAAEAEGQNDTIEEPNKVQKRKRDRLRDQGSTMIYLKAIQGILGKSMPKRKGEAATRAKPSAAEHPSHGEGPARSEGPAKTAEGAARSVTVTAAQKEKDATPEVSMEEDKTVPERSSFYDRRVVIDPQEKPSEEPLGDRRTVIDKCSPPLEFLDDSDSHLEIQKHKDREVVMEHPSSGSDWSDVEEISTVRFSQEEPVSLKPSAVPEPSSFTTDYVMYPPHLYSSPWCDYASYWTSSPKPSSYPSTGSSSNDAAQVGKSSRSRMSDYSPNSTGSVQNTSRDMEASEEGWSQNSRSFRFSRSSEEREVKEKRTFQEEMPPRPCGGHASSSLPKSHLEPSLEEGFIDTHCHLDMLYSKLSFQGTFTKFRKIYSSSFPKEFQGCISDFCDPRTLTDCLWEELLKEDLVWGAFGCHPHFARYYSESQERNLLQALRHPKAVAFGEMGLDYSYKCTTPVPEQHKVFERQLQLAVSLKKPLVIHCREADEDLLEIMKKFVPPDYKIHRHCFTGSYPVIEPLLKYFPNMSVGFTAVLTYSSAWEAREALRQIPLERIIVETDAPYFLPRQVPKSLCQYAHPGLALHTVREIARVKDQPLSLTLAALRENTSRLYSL
UniProt Q9UH99: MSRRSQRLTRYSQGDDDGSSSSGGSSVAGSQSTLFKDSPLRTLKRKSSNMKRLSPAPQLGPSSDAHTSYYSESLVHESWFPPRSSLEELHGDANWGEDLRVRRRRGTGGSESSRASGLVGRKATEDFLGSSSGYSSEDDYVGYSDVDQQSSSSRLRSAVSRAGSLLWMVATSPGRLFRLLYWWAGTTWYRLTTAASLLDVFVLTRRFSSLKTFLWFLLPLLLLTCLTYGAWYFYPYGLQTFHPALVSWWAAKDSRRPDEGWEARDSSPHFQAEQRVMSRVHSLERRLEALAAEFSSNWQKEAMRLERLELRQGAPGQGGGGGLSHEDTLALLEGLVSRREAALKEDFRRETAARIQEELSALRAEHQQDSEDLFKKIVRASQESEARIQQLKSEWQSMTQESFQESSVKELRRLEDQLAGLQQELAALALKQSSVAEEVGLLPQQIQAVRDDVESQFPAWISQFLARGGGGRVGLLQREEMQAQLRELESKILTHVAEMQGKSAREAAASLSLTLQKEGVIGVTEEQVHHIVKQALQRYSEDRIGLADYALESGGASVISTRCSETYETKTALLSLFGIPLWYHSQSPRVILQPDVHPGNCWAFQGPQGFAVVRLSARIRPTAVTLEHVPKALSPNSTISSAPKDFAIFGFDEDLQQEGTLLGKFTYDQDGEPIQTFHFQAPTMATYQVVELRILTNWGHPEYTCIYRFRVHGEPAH
UniProt Q16514: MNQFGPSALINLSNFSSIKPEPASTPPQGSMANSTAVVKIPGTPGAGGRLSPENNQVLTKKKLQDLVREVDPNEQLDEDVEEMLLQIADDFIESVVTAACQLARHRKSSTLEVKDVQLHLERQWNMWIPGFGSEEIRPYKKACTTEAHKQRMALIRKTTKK
UniProt P56962: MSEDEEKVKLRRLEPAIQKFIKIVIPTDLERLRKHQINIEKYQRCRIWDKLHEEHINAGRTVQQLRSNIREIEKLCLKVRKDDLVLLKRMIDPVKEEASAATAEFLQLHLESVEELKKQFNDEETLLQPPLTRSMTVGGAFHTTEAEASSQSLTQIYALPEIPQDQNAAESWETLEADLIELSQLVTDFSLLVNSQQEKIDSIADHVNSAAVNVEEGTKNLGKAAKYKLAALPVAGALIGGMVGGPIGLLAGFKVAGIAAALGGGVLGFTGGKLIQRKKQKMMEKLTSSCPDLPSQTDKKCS
UniProt Q9C0B7: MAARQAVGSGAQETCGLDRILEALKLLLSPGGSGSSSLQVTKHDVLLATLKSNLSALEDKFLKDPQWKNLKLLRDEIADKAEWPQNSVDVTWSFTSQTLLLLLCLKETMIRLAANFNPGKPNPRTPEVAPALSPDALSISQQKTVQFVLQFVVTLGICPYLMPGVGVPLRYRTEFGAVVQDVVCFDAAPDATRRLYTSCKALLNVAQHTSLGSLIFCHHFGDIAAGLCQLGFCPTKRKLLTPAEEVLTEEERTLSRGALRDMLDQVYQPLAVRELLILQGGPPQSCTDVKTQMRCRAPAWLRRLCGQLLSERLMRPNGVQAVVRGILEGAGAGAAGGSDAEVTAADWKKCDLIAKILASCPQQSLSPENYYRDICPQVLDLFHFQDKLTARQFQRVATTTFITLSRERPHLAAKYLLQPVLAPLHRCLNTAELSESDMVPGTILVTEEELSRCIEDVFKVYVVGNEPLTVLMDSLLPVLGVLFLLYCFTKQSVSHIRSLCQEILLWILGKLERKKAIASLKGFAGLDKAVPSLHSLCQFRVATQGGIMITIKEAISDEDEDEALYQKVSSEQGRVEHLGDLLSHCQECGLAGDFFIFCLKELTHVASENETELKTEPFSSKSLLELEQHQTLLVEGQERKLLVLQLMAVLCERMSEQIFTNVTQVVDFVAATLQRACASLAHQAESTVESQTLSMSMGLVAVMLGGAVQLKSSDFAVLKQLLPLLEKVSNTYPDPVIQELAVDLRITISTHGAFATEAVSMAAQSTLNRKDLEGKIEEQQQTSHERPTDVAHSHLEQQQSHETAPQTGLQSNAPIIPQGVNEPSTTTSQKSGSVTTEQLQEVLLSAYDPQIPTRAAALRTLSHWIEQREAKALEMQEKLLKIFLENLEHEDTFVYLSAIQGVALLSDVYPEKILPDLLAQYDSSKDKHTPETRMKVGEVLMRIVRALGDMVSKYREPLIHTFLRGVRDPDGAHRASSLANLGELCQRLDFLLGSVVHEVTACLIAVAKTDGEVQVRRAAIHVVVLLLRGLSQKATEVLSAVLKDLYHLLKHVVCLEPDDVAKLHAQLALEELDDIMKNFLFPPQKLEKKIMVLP
UniProt Q8N300: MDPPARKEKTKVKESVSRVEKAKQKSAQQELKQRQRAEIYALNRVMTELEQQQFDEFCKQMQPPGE
UniProt Q9P2R7: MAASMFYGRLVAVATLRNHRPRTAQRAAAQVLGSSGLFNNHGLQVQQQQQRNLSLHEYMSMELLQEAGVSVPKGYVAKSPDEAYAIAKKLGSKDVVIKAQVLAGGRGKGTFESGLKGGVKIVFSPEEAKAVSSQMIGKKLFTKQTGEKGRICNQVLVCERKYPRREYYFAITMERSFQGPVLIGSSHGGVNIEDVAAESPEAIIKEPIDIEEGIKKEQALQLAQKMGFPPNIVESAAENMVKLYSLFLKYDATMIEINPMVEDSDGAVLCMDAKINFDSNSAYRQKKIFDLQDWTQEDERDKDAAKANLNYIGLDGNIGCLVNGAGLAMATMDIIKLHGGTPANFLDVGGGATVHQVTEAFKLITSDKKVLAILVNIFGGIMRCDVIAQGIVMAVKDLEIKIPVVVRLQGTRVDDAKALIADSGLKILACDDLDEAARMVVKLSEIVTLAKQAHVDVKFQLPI
UniProt Q16594, whole entry, looked up: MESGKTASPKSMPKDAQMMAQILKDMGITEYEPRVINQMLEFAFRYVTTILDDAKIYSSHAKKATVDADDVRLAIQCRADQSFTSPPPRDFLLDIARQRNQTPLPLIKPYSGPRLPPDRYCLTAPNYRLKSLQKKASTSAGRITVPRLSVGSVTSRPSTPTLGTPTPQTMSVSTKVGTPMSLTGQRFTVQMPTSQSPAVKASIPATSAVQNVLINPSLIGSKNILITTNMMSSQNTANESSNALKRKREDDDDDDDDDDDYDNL
UniProt Q8IWZ8: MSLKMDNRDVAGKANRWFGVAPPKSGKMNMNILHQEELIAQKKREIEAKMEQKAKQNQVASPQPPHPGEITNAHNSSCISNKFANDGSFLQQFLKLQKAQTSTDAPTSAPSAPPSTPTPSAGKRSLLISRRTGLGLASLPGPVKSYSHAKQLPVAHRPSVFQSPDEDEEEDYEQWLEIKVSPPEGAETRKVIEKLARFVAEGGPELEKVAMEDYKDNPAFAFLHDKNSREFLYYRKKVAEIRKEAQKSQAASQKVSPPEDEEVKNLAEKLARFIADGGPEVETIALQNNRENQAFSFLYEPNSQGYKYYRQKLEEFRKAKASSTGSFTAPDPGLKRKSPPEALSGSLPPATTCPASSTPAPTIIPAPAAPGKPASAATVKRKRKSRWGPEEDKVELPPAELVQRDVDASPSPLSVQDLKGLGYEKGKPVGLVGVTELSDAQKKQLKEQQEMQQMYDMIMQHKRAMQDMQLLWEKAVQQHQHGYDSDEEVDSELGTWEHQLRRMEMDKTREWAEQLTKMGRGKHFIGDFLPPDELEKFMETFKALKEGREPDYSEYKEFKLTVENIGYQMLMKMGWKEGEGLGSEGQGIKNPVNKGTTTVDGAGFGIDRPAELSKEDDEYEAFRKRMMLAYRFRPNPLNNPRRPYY
UniProt Q15833: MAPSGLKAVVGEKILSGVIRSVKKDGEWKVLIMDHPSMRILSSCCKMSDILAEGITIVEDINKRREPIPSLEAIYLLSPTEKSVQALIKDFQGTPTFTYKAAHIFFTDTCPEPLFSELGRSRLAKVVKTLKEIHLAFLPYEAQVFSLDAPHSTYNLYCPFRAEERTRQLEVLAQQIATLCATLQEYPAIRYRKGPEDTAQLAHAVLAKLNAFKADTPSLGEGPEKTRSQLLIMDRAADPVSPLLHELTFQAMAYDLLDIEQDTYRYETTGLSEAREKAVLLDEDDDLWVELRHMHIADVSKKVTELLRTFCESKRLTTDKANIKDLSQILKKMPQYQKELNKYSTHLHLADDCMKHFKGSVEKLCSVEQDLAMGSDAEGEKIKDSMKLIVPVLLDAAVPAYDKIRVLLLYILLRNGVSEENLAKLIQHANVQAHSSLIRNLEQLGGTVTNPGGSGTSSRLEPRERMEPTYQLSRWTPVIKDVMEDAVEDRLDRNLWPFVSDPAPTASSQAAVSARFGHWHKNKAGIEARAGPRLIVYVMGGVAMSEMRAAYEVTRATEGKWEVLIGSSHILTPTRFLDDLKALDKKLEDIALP

Drawing on the supplement of paper PMC10849652, this text covers log2 fold change for 13 targets.

Assay in all cases: log2 fold change, soluble protein after heating vs DMSO (PISA); higher = thermal stabilisation; K562 cells, 10 uM, 30 min; active = over 0.2 and 3.5 SD of the protein, either way, in both replicates (recomputed)
Compound in assay [1]: CC[C@@H]1C(=O)N(C)c2cnc(Nc3ccc(C(=O)NC4CCN(C)CC4)cc3OC)nc2N1C1CCCC1
An outline of the steps:
(§1)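 Quantification of soluble protein used TMTpro 16plex LC-MS/MS, with channel sums equalised. Samples were the supernatant after 21,000xg for 90 min of pooled aliquots from K562 cells (2×10^6 cells/mL) treated with 10 μM compound for 30 min, heated for 3 min over 48°C-58°C, and extracted in PBS with 0.5% NP-40 at 4°C. Values, from duplicates, describe thermal stability against control samples on a log2 fold-change scale.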

Compound in assay [2]: CC[C@@H]1C(=O)N(C)c2cnc(Nc3ccc(C(=O)N[C@H]4CC[C@H](N5CCN(CC6CC6)CC5)CC4)cc3OC)nc2N1C(C)C [volasertib]
An outline of the steps: as §1

Compound in assay [3]: CC[C@H](C)N1C=C(C2=C(C=C(C=C21)C3=CN=C(C=C3)N4CCNCC4)C(=O)NCC5=C(C=C(NC5=O)C)C)C
An outline of the steps: as §1

Compound in assay [4]: CC[C@H](C)[C@@H](C(=O)N[C@@H]([C@@H](C)O)C(=O)N[C@@H](CC(C)C)C(=O)[C@]1(CO1)C)NC(=O)[C@H]([C@@H](C)CC)N(C)C(=O)C [epoxomicin]
The gist of the method: as §1

Compound in assay [5]: CCn1cc(-c2ccnc3[nH]c(-c4cccc(CN(C)C)c4)cc23)c(-c2ccc(NC(=O)N(C)C)cc2)n1
An outline of the steps: as §1

Compound in assay [6]: CN(C)CC(=O)Nc1ccc2[nH]c(=O)c3ccccc3c2c1
An outline of the steps: as §1

Compound in assay [7]: CN1C2=C(C3=C1C(=O)N(N=C3)CC4=CC(=CC=C4)N)SC(=C2)S(=O)C
The gist of the method: as §1

Compound in assay [8]: CN1CCC(CNc2ccc3ncc(-c4cccc(OC(F)(F)F)c4)n3n2)CC1
The gist of the method: as §1

Compound in assay [9]: CCn1c(C(=O)N(C2CC2)C2CC2)cc2c3c(ncn3C)c(Nc3cc(C)n(C)n3)nc21
An outline of the steps:
as §1

Compound in assay [10]: CN(CCOC1=CC=C(C=C1)C[C@H]2C(=O)NC(=O)S2)C3=CC=CC=N3 (racemic) [rosiglitazone]
An outline of the steps: as §1

Take TATDN2 (UniProt Q93075): the log2 fold change was inactive: 0.071 in assay [1]; inactive: -0.008 in assay [2]; inactive: 0.104 in assay [3]; inactive: -0.096 in assay [4]; inactive: -0.071 in assay [5]; inactive: -0.098 in [6]. The log2 fold change in assay [7] was inactive: 0.046; in assay [8], inactive: -0.076.
With SUN2 (UniProt Q9UH99), the log2 fold change was inactive: 0.016 in [1]; inactive: -0.064 in [2]; inactive: 0.01 in assay [3]; inactive: 0.045 in [4]; inactive: -0.032 in [5]; inactive: -0.012 in assay [6]. Also, the log2 fold change in assay [7] was inactive: 0.015; in assay [8], inactive: 0.057.
For TAF12 (UniProt Q16514), the log2 fold change was inactive: -0.037 in assay [1]; inactive: -0.018 in [2]; inactive: -0.097 in assay [3]; inactive: 0.012 in assay [9]; inactive: -0.002 in assay [5]; inactive: 0.089 in assay [6]. In addition, the log2 fold change in [10] was inactive: 0.034; in [8], inactive: -0.02.
Consider STX17 (UniProt P56962), for which the log2 fold change in assay [1] was inactive: -0.273; in [2], active: -0.357; in assay [3], inactive: -0.06; in assay [4] it was inactive: 0.062; in assay [5], inactive: 0.011; in assay [6], inactive: -0.02. The log2 fold change in [7] was inactive: -0.126; in assay [8], inactive: -0.278.
For the target TANGO6 (UniProt Q9C0B7), the log2 fold change was inactive: 0.276 in assay [1]; active: -0.375 in [2]; inactive: 0.052 in assay [3]; inactive: 0.035 in assay [4]; inactive: 0.006 in assay [7].
SVBP (UniProt Q8N300): the log2 fold change was inactive: 0.032 in assay [1]; inactive: 0.046 in assay [2]; inactive: 0.087 in assay [4]; inactive: -0.15 in assay [5]; inactive: 0.02 in assay [6]; inactive: 0.067 in assay [10]. Moreover, the values for the log2 fold change in assay [7] and in assay [8] were inactive: -0.074 and inactive: -0.041, respectively.
Consider SUCLA2 (UniProt Q9P2R7), for which the log2 fold change in [1] is inactive: 0.013; in [2], inactive: -0.105; in [3] it was inactive: 0.052; in [4], inactive: 0.016; in assay [5] it was inactive: -0.049; in assay [6], inactive: 0.018. In addition, the log2 fold change in [7] was inactive: -0.071; in [8], inactive: -0.05.
For TAF9 (UniProt Q16594), the log2 fold change in assay [1] was inactive: -0.028; in assay [2], inactive: 0.095; in assay [3], inactive: -0.029; in assay [4], inactive: 0.12; in [5] it was inactive: 0.034; in assay [6], inactive: -0.021. Moreover, the log2 fold change in assay [7] was inactive: 0.061; in assay [8], inactive: 0.077.
TACC2 (UniProt O95359): the log2 fold change in [1] was inactive: -0.013; in [2] it was inactive: -0.048; in [3], inactive: 0.014; in assay [5], inactive: 0.041; in [6], inactive: -0.069; in [7] it was inactive: 0. In addition, the log2 fold change in [8] was inactive: -0.044.
Take SUGP1 (UniProt Q8IWZ8): the log2 fold change in assay [1] was inactive: -0.155; in [2], active: -0.341; in [3], inactive: 0.056; in assay [4] it was inactive: 0.062; in assay [5], inactive: -0.007; in [6], inactive: 0.021. Moreover, the log2 fold change in assay [7] was inactive: -0.028; in assay [8], inactive: -0.081.
Turning to STXBP2 isoform 3 (UniProt Q15833), the log2 fold change in assay [1] is inactive: -0.015; in assay [2] it was inactive: -0.217; in assay [3], inactive: 0.138; in [4] it was inactive: -0.006; in assay [5], inactive: -0.025; in [6] it was inactive: 0.02. Further, the log2 fold change in [7] is inactive: 0.116; in assay [8], inactive: -0.072.
Turning to STK39 (UniProt Q9UEW8), the log2 fold change in [1] is inactive: -0.062; in [2], inactive: -0.139; in assay [3] it was inactive: 0.023; in [4] it was inactive: 0.054; in [5], inactive: -0.036; in assay [6], inactive: -0.011. The figures for the log2 fold change in assay [7] and in assay [8] were inactive: 0.005 and active: -0.25, respectively.
For the target SUPT5H (UniProt O00267), the log2 fold change was inactive: -0.018 in assay [1]; active: -0.224 in assay [2]; inactive: 0.084 in [3]; inactive: 0.062 in assay [4]; inactive: -0.065 in assay [5]; inactive: 0.056 in assay [6]. Moreover, the log2 fold change in assay [7] was inactive: -0.056; in assay [8] it was inactive: -0.117.
